Here are results for 1 substance from paper PMC6693180.

For the experiment, the target named is T1, Programmed cell death 4 (PDCD4) (human (endogenous in 293T)) (UniProt Q53EL6).
T1 sequence: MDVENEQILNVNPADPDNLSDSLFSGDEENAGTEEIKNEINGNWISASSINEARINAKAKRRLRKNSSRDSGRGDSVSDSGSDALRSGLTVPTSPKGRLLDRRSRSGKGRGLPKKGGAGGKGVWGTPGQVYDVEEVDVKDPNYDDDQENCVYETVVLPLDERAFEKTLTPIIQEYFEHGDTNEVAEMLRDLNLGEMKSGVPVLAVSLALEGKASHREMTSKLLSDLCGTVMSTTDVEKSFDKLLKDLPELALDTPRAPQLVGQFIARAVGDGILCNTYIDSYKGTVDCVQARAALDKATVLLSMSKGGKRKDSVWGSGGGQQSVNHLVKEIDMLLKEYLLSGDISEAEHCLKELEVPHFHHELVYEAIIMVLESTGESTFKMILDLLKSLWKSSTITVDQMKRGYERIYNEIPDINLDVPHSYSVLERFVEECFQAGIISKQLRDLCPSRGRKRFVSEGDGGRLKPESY
The experiment can be described thus: co-IP; Flag-tagged truncated DTL fragments transfected into 293T (Lipofectamine 2000); precipitated by PDCD4 antibody, blotted with Flag antibody.

These are yes or no findings as the source states them, for the method shown. In cells and extracts the contact can be indirect. Binding can be weak; no strength is given.

Turning to “Flag-DTL truncated fragment, WD40 domain only (human) (domain or fragment)”, the binding entry is listed as “binds”.
